In PubChem BioAssay AID1487 (National Center for Advancing Translational Sciences (NCATS), 2009) one finds AC50 data, which are given here for 53 compounds.

The experiment can be described thus: qHTS Assay for Modulators of Lamin A Splicing. The settings on record: HeLa LMNA splicing GFP/RFP minigene ratio, 48 h. A digest of the protocol: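 S3 HeLa stable clones carrying a lamin A-EGFP splicing minigene plus DsRed2 were seeded at 600 cells/well in Opti-MEM with 2% FBS, pin-dosed and incubated 48 h at 37°C. Acumen cytometry (488 nm) gave the GFP/RFP total-intensity ratio.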

Setting [1] is: measured here: GFP splicing reporter channel.
Where [2] appears, read: measured here: RFP viability control channel.

Each structure is given as a SMILES string. Some of the results follow. These are further read-outs of the screen, such as a control signal, another cell line or another target. No call is given for them. The list favours compounds with an active or inconclusive main result. Potencies come from curve fits of mixed quality, noted in brackets.

As to `CC(CCc1ccccc1)NC(=O)/C=C/c1ccc(Cl)cc1` (stereo unspecified), the AC50 under setting [1] is 14.1 µM [rising, single point] and the AC50 under setting [2] is 22.4 µM [rising, single point].
With `COc1cccc(Cn2c(CNS(=O)(=O)c3ccc4c(c3)CCCC4)nc3cccnc32)c1`, the AC50 under setting [1] was 0.02 µM [falling, full curve, poor fit].
In the case of `Cc1ccc(S(=O)(=O)Nc2cc(C(F)(F)F)ccc2N2CCOCC2)cc1C`, the AC50 is, setting by setting: under setting [1], 15.8 µM [rising, single point]; under setting [2], 20 µM [rising, single point].
For `CN(Cc1ccc(C(C)(C)C)cc1)Cc1cccc2ccccc12`, the half-maximal activity concentration (AC50) is 35.5 µM [falling, single point] under setting [1] and 20 µM [falling, single point] under setting [2].
`COc1ccc(/C=C2\SC(=O)N(CCNC(=O)Cc3coc4cc(OC)ccc34)C2=O)cc1`: the AC50 under setting [1] was 12.6 µM [rising, partial curve] and the AC50 under setting [2] is 20 µM [rising, partial curve].
Take `COc1ccc(O)c(-c2c(-c3ccc(Cl)cc3)n[nH]c2C)c1`: the AC50 reads like this: under setting [1], 35.5 µM [rising, single point]; under setting [2], 35.5 µM [rising, single point].
On to `C[C@]12CC[C@H]3c4ccc(O)cc4CC[C@@H]3[C@H]1CC[C@@H]2OC(=O)CCC1CCCC1`, for which the AC50 runs as follows: under setting [1], 5.62 µM [rising, full curve]; under setting [2], 3.55 µM [rising, full curve, poor fit].
`COc1cccc(CN2CCNC(=O)C2CC(=O)NCCn2ccc3ccccc32)c1OC` (stereo unspecified): under setting [2], the half-maximal activity concentration (AC50) is 1.58 µM [rising, partial curve, poor fit].
On the same count and under the same terms, the figure for `Cc1ccccc1Cn1ccc(NC(=O)c2onc(C)c2Cl)n1` is 35.5 µM [rising, single point].
On to `Fc1ccccc1/C=C1\CCCC2=C1Nc1ncnn1C2c1ccccc1F` (stereo unspecified), for which the half-maximal activity concentration (AC50) runs as follows: under setting [1], 20 µM [falling, single point]; under setting [2], 35.5 µM [falling, single point].
In the case of `O=C(CSc1nc(Cc2ccccc2)nc2ccccc12)Nc1nc2c(s1)CCCC2`, the AC50 under setting [2] is 15.8 µM [rising, partial curve].
As to `Cc1cc(C)c(C(=O)CSc2n[nH]c(=O)n2C2CC2)cc1C`, the AC50 under setting [2] was 31.6 µM [rising, single point].
Take `O=C1CCCC2=C1C(c1ccncc1)n1c(nc3ccccc31)N2` (stereo unspecified): the AC50 runs as follows: under setting [1], 0.0282 µM [falling, full curve, poor fit]; under setting [2], 0.282 µM [falling, partial curve].
Turning to `COc1ccccc1N1CCN(/N=C/C=C\c2ccccc2[N+](=O)[O-])CC1`, under setting [2], the concentration at half-maximal activity (AC50) is 0.282 µM [rising, full curve, poor fit].
For `Cc1ccc(NC(=O)c2ccccc2NS(=O)(=O)c2ccc(F)cc2)cc1S(=O)(=O)N1CCCCC1`, the half-maximal activity concentration (AC50) is 0.708 µM [rising, full curve] under setting [1] and 2.51 µM [rising, full curve] under setting [2].
Consider `Cc1ccc(-c2n[nH]c(=S)n2/N=C/c2c(C)[nH]n(-c3ccccc3)c2=O)cc1`, for which the half-maximal activity concentration (AC50) under setting [1] was 6.31 µM [falling, single point].
Turning to `O=C(NCc1ccccn1)c1cc(-c2ccc(-c3ccccc3)cc2)nc2ccccc12`, under setting [2], the half-maximal activity concentration (AC50) was 2.51 µM [rising, full curve].
`Cc1nc2ccc(NC(=O)c3cc(S(=O)(=O)N(C)c4ccccc4)ccc3Cl)cc2s1`: the AC50 was 4.47 µM [rising, partial curve] under setting [1] and 2.24 µM [rising, full curve] under setting [2].
For the compound `O=C(OCCN1C(=O)c2ccccc2C1=O)c1ccco1`, the concentration at half-maximal activity (AC50) under setting [1] is 35.5 µM [falling, single point] and the AC50 under setting [2] was 35.5 µM [falling, single point].
For the compound `CC(/C=N/n1c(-c2ccc(Cl)cc2)n[nH]c1=S)=C\c1ccco1`, under setting [2], the half-maximal activity concentration (AC50) is 35.5 µM [rising, single point].
On to `COc1cc(NC(=O)c2ccc3c(SCC(=O)O)c4c(nc3c2)CCCC4)cc(OC)c1OC`, for which the AC50 under setting [1] was 0.708 µM [rising, full curve, poor fit].
On to `CCOC(=O)c1[nH]c(C)c(C(=O)Nc2cc(Cl)ccc2C)c1C`, for which, under setting [2], the AC50 was 6.31 µM [rising, partial curve, poor fit].
As to `COc1ccccc1CNc1ncnc2ccc(-c3ccccc3C#N)cc12`, the AC50 was 11.2 µM [falling, partial curve] under setting [1] and 17.8 µM [falling, partial curve] under setting [2].
As to `COc1ccc(NS(=O)(=O)c2cccc(Cl)c2)cc1S(=O)(=O)N1CCCCC1`, the concentration at half-maximal activity (AC50) under setting [1] was 11.2 µM [rising, partial curve, poor fit].
As to `COc1cccc(OCCCN2CCN(S(=O)(=O)c3ccc(NC(C)=O)cc3)CC2)c1`, the AC50 under setting [2] is 10 µM [rising, partial curve, poor fit].
With `COc1ccc(NC(=O)CC2C(=O)N(CCc3ccccc3)C(=S)N2Cc2cccnc2)cc1` (stereo unspecified), the AC50 is, setting by setting: under setting [1], 11.2 µM [falling, partial curve, poor fit]; under setting [2], 11.2 µM [falling, partial curve, poor fit].
For `CCC(C)n1c(SCC(=O)Nc2cc(C(C)(C)C)nn2-c2ccccc2)nc2ccccc2c1=O` (stereo unspecified), the concentration at half-maximal activity (AC50) is, setting by setting: under setting [1], 10 µM [rising, partial curve]; under setting [2], 12.6 µM [rising, partial curve].
Turning to `NS(=O)(=O)c1cc(C(=O)N2CCc3ccccc32)c(Cl)cc1Cl`, the concentration at half-maximal activity (AC50) under setting [2] was 17.8 µM [rising, single point].
Still for that read-out and setting: under `CCC(Sc1nc2ccccc2s1)C(=O)Nc1cc(C)on1` (stereo unspecified) stands 35.5 µM [rising, single point].
With `Cc1nc(C(F)(F)F)ccc1C(=O)Nc1ccccc1F`, the AC50 under setting [1] is 0.141 µM [falling, full curve] and the concentration at half-maximal activity (AC50) under setting [2] was 0.891 µM [falling, partial curve].
As to `CCN(CCCNC(=O)CCc1nc(-c2ccc(C)cc2)no1)c1cccc(C)c1`, the AC50 under setting [2] was 35.5 µM [rising, single point].
As to `Cn1c(=O)[nH]c(=O)c2c1ncn2CCCc1ccccc1`, the AC50 runs as follows: under setting [1], 0.112 µM [rising, full curve, poor fit]; under setting [2], 3.16 µM [rising, partial curve, poor fit].
Turning to `COCCNC(=S)N/N=C/c1c(C)[nH]c2ccccc12`, under setting [2], the AC50 was 15.8 µM [rising, partial curve].
The same measure, in the same setting: the figure for `CC(=O)Nc1ccc(S(=O)(=O)Nc2cccc(NC(=O)c3ccco3)c2)cc1` is 2.24 µM [falling, partial curve].
The same measure, in the same setting: the figure for `COc1ccccc1-c1ccc2ncnc(N3CCN(C)CC3)c2c1` is 5.62 µM [falling, partial curve, poor fit]; for `C=CCc1cc(C)ccc1OCCOCCn1ccnc1` it is 14.1 µM [rising, partial curve, poor fit].
Take `O=[N+]([O-])c1ccc(/C=C/C2=NN(c3ccccc3)C(c3ccco3)C2)o1` (stereo unspecified): the half-maximal activity concentration (AC50) under setting [1] was 0.00794 µM [falling, full curve, poor fit].
Regarding `NC(=O)c1c(NC(=O)CS(=O)(=O)c2ccc(Cl)cc2)sc2c1CCCC2`, under setting [2], the AC50 was 31.6 µM [rising, single point].
Regarding `C=CCN1CCc2c(cc(O)c(O)c2Cl)C(c2ccccc2)C1` (stereo unspecified), the AC50 by setting is: under setting [1], 35.5 µM [falling, single point]; under setting [2], 35.5 µM [rising, single point].
Turning to `Cc1ccc(S(=O)(=O)NCc2ccncc2)cc1`, the AC50 under setting [2] was 5.62 µM [rising, full curve].
Regarding `CCOc1ccccc1-n1c(SCC(N)=O)nnc1-c1ccccc1`, the AC50 under setting [2] was 4.47 µM [falling, full curve, poor fit].
Turning to `CC12CCC(C/C1=N\N=C1\NC(=O)/C(=C\c3cccc(Br)c3)S1)C2(C)C` (stereo unspecified), the AC50 reads like this: under setting [1], 0.316 µM [falling, full curve, poor fit]; under setting [2], 0.447 µM [falling, partial curve].
Consider `COc1cccc(-c2nccc(NCc3ccccc3)n2)c1`, for which the AC50 reads like this: under setting [1], 11.2 µM [falling, partial curve]; under setting [2], 20 µM [falling, partial curve, poor fit].
As to `COCC(C)NC(=O)COc1ccc(Cl)cc1Cl` (stereo unspecified), the concentration at half-maximal activity (AC50) under setting [2] is 14.1 µM [rising, partial curve].
Still for that read-out and setting: the figure for `Cc1ccc(NC(=O)C2CCN(C(=O)c3sc4nc[nH]c(=O)c4c3C)CC2)cc1F` is 2.24 µM [rising, partial curve].
Regarding `C[C@@H]1CCC2[C@@H](C)[C@@H](O)O[C@@H]3O[C@@]4(C)CC[C@@H]1[C@@]23OO4` (stereo partly specified), the AC50 was 0.178 µM [rising, full curve] under setting [1] and 10 µM [falling, partial curve] under setting [2].
On to `COc1ccc(C2CC(=O)c3cnc(NC(=O)c4ccccc4)nc3C2)c(OC)c1` (stereo unspecified), for which, under setting [2], the half-maximal activity concentration (AC50) was 10 µM [rising, single point].
Regarding `COC(=O)c1ccc(NC(=O)C(=O)NCCc2csc3nc(-c4ccccc4F)nn23)cc1`, the concentration at half-maximal activity (AC50) is 11.2 µM [falling, single point] under setting [1] and 17.8 µM [falling, single point] under setting [2].
Take `CCOC(=O)N1CCN(Cc2nc3cc(NC(=O)CC(C)C)ccc3n2C(C)C)CC1`: the concentration at half-maximal activity (AC50) under setting [2] was 0.501 µM [rising, full curve].
Take `CC(C)CC1NC(=O)C(CCCN)NC(=O)C(C(C)C)NC(=O)C2CCCN2C(=O)C(Cc2ccccc2)NC(=O)C(CC(C)C)NC(=O)C(CCCN)NC(=O)C(C(C)C)NC(=O)C2CCCN2C(=O)C(Cc2ccccc2)NC1=O` (stereo unspecified): the half-maximal activity concentration (AC50) by setting is: under setting [1], 0.794 µM [rising, full curve]; under setting [2], 1 µM [rising, full curve, poor fit].
Take `O=C(Nc1nc2ccccc2c(=O)[nH]1)c1ccccc1SCc1ccccc1`: the AC50 under setting [2] was 8.91 µM [rising, single point].
For `O=C(CCCN1CCC(O)(c2ccc(Cl)cc2)CC1)c1ccc(F)cc1`, the half-maximal activity concentration (AC50) under setting [1] is 0.00355 µM [falling, full curve, poor fit].
As for `COc1ccccc1CCNC(=O)c1cc(-c2ccncc2)nc2ccc(Br)cc12`, the concentration at half-maximal activity (AC50) reads like this: under setting [1], 2.82 µM [falling, single point]; under setting [2], 35.5 µM [falling, single point].
